Results are given in words; binding and its absence hold for the method and conditions named. Binding seen in cells or lysates may run through a third protein. Some results given as binding are weak or reduced against the parent protein; the word gives no strength. Where a sequence is shown, tags or fusion partners need not be part of it.
Target: T1, GST-PER2 (human) (UniProt O15055)
T1 sequence: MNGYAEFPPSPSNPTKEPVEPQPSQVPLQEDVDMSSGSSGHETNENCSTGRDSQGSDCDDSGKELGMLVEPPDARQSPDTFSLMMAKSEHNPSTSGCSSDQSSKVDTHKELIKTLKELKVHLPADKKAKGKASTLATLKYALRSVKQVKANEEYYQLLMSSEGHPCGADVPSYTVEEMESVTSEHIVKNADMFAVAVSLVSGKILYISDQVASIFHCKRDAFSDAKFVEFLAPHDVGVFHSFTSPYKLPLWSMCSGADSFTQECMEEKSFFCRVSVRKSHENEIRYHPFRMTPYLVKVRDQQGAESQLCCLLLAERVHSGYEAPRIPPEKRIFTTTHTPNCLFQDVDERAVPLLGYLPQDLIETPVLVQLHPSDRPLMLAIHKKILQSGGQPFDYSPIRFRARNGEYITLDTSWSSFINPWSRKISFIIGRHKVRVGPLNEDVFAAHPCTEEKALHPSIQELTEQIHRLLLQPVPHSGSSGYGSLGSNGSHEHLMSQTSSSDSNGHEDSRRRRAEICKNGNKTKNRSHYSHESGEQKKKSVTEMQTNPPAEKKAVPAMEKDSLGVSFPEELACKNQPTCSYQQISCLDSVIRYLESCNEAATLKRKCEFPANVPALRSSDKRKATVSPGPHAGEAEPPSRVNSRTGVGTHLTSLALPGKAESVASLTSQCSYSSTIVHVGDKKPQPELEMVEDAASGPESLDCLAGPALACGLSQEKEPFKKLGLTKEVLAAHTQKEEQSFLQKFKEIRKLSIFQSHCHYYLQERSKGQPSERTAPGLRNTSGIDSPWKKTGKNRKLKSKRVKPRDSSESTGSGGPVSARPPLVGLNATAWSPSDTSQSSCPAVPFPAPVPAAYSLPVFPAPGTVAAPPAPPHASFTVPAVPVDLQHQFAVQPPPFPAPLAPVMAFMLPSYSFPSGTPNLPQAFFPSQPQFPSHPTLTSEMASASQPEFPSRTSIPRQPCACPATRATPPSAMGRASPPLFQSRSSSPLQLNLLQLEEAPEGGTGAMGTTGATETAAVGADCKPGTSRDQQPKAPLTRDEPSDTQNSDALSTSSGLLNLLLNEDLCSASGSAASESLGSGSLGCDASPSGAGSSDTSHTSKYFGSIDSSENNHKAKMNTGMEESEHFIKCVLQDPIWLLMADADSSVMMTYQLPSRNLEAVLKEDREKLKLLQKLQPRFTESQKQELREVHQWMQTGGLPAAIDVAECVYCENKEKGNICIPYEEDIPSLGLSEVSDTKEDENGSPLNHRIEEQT
Experiment: pull-down; GST-PER2 or GST-HSP70 captured on glutathione agarose from bacterial lysates (1 h, 4 °C); about 100 µg fusion protein incubated with the target proteins for 4 h in vitro; eluted with glutathione, western blot (Pierce GST Protein Interaction Pull-down Kit)

Amino acid sequences for entries named in this document (tags omitted).
UniProt P0DMV8: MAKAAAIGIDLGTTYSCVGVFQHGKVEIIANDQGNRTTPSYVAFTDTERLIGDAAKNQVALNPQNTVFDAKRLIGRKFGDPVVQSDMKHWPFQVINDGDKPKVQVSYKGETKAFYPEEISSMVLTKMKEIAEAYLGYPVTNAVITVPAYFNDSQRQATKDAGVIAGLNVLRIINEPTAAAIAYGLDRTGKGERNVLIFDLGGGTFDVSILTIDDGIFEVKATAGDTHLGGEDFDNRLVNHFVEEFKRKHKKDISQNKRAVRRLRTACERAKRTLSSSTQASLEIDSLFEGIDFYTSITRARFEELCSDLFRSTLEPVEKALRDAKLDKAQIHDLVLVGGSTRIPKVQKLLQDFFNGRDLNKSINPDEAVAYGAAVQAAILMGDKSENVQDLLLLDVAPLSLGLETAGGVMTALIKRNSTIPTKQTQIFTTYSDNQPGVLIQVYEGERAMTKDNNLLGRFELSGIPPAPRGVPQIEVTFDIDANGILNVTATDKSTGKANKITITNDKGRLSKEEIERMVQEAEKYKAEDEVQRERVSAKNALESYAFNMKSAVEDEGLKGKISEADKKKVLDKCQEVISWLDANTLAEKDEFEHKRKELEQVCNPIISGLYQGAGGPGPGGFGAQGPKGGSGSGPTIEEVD

binding: binds
Substance: HSP70, target protein of the GST pull-down (from UniProt P0DMV8 1-641)

— publication PMC11926231
